From PubChem BioAssay
This is one part of the list. These are further read-outs of the screen, such as a control signal, another cell line or another target. No call is given for them. For part of these data: Compounds called inactive in the main read-out are mostly missing here. Bridge positions count the residues as written; N and C are the ends. Square brackets hold non-standard residues; d marks the D form. Peptide text beside a SMILES is read from it. * marks the point of attachment. ξ: configuration not given here. ξDab(CH2SO3H) = NC(CCNCS(=O)(=O)O)C(=O)O; Heptanoyl(6-Me) = CC(C)CCCCC(=O)*; Dab = NCC[CH](N)C(=O)O

How the values were obtained:
PubChem AID 1586 = details: yeast two-hybrid polyglutamine protein interaction, reporter readout; measured here: averaged growth delta OD
[1] = selective SMN2 exon splicing luciferase activators – cell-based, SMN2/SMN1 luciferase reporters (AID 1598); details: SMN2 vs SMN1 luciferase splicing reporter cells, at 10 µM; SMN1 luciferase ratio: measured here: SMN1 luciferase reporter average; SMN2 luciferase ratio: measured here: SMN2 luciferase reporter average, stronger effect = higher value
[2] = rescue of PC12 cells from polyQ htt toxicity – LDH release (AID 1610); details: PC12 mutant huntingtin toxicity, final LDH at 4 uM, stronger effect = lower value

| Structure (SMILES) | signal change (36 h minus 0 h) (PubChem AID 1586) | SMN1 luciferase ratio [1] | SMN2 luciferase ratio [1] | normalised LDH release [2] |
| --- | --- | --- | --- | --- |
| CCC[C@@H]1C[C@@H](C(=O)NC(C(C)Cl)C2O[C@H](SC)[C@H](O)[C@@H](O)[C@H]2O)N(C)C1 (some centres undefined) | 0.095 | 0.9 | 0.9 | 0.754 |
| CC(=O)N[C@@H](CC(C)C)C(=O)O | 0.0868 | 0.99 | 0.85 | 0.885 |
| C=C1C(=O)O[C@@H]2C3OC3(C)CC/C=C(\C)CC[C@@H]12 (some centres undefined) | 0.09 | 0.8 | 0.88 | 0.571 |
| CCN(CC)C(=O)c1cccc(C)c1 | 0.0833 | 0.8 | 0.85 | 1.01 |
| CCCC1O[C@@H]2CC3C4CCC5=CC(=O)C=CC5(C)C4[C@@H](O)CC3(C)[C@]2(C(=O)CO)O1 (some centres undefined) | 0.136 | 0.94 | 0.82 | 0.182 |
| CC(Cc1ccc(O)c(O)c1)(NN)C(=O)O (centres undefined) | 0.157 | 0.89 | 0.89 | 0.975 |
| NC1(C(=O)O)CCCC1 | 0.0781 | 0.8 | 0.88 | 0.979 |
| NC[C@H]1O[C@H](O[C@H]2[C@H](O)[C@@H](O[C@H]3O[C@H](CO)[C@@H](O)[C@H](N)[C@H]3O)[C@H](N)C[C@@H]2N)[C@H](O)[C@@H](O)[C@@H]1O | 0.0101 | 0.8 | 0.92 | 0.938 |
| CCC(C)C1NC(=O)C(CCNCS(=O)(=O)O)NC(=O)C(NC(=O)C(CCNCS(=O)(=O)O)NC(=O)C(NC(=O)C(CCNCS(=O)(=O)O)NC(=O)CCCCC(C)C)C(C)O)CCNC(=O)C(C(C)O)NC(=O)C(CCNCS(=O)(=O)O)NC(=O)C(CCNCS(=O)(=O)O)NC(=O)C(C(C)CC)NC1=O (centres undefined) ({Heptanoyl(6-Me)}-[ξDab(CH2SO3H)]T[ξDab(CH2SO3H)][Dab][ξDab(CH2SO3H)]II[ξDab(CH2SO3H)][ξDab(CH2SO3H)]T; lactam 4-C; configuration not given here) | 0.181 | 0.83 | 0.75 | 0.994 |
| Nc1ccc(C(=O)O)c(O)c1 (tested in a mixture with another compound) | 0.0954 | 0.84 | 0.84 | 0.666 |
| CC[C@H](C)C(=O)O[C@H]1CCC=C2C=C[C@H](C)C(CCC3C[C@@H](O)CC(=O)O3)[C@H]21 (some centres undefined) | -0.112 | 1.12 | 1.06 | 1.68 |
| COc1ccc2c(c1)c(CC(=O)O)c(C)n2C(=O)c1ccc(Cl)cc1 | 0.295 | 0.93 | 0.86 | 1.04 |
| NC(=O)c1ccc[n+]([C@@H]2O[C@H](COP(=O)([O-])OP(=O)(O)OC[C@H]3O[C@@H](n4cnc5c(N)ncnc54)[C@H](O)[C@@H]3O)[C@@H](O)[C@H]2O)c1 | 0.165 | 0.87 | 0.91 | 0.942 |
| N[C@@H](CCC(=O)N[C@@H](CS)C(=O)NCC(=O)O)C(=O)O | 0.133 | 0.92 | 0.92 | 0.436 |
| CC(=O)NC(Cc1ccccc1)C(=O)O (centres undefined) | 0.19 | 0.87 | 0.93 | 0.882 |
| CC1(C)O[C@@H]2CC3C4CCC5=CC(=O)CCC5(C)C4(F)C(O)CC3(C)[C@]2(C(=O)CCl)O1 (some centres undefined) | 0.163 | 0.83 | 0.82 | 0.607 |
| CC(C(=O)O)c1cccc(Oc2ccccc2)c1 (centres undefined) | 0.195 | 0.89 | 0.88 | 0.855 |
| Cn1c(=O)c2c(ncn2CCO)n(C)c1=O | 0.142 | 0.95 | 0.89 | 0.98 |
| C1CCN2C[C@@H]3CC(CN4CCCC[C@@H]34)[C@H]2C1 | 0.144 | 0.86 | 0.87 | 0.828 |
| CCCc1ncc(C[n+]2ccccc2C)c(N)n1 | 0.139 | 0.84 | 0.92 | 1.24 |
| Cc1nnc(NS(=O)(=O)c2ccc(N)cc2)s1 | 0.147 | 0.96 | 1 | 1.17 |
| C[C@@H]1CC2C3C[C@H](F)C4=CC(=O)C=C[C@]4(C)[C@@]3(F)[C@@H](O)C[C@]2(C)[C@@]1(O)C(=O)CO (some centres undefined) | 0.0908 | 0.82 | 0.94 | 0.372 |

| Structure (SMILES) | signal change (36 h minus 0 h) (PubChem AID 1586) | SMN1 luciferase ratio [1] | SMN2 luciferase ratio [1] | normalised LDH release [2] |
| --- | --- | --- | --- | --- |
| C=CC[C@@H]1/C=C(\C)C[C@H](C)C[C@H](OC)[C@H]2O[C@@](O)(C(=O)C(=O)N3CCCC[C@H]3C(=O)O[C@H](/C(C)=C/[C@@H]3CC[C@@H](O)[C@H](OC)C3)[C@H](C)[C@@H](O)CC1=O)[C@H](C)C[C@@H]2OC | 0.121 | 1.04 | 1.09 | 0.934 |
| CNCCCC12CCC(c3ccccc31)c1ccccc12 | 0.067 | 0.94 | 0.95 | 1.03 |
| CC12CCC3c4ccc(OCc5ccccc5)cc4CCC3C1C[C@@H](O)[C@@H]2O (some centres undefined) | 0.02 | 0.42 | 0.46 | 1.37 |
| CN1CCCN=C1COC(=O)C(O)(c1ccccc1)C1CCCCC1 (centres undefined) | 0.0689 | 0.81 | 0.91 | 0.623 |
| NCCCS(=O)(=O)O | 0.114 | 0.93 | 0.87 | 0.979 |
| COc1cc(C(=O)NCc2ccc(OCCN(C)C)cc2)cc(OC)c1OC | 0.138 | 0.85 | 0.89 | 0.857 |
| CN[C@@H]1C(O)[C@@H](O[C@@H]2[C@@H](O)[C@H](O[C@H]3OC(CN)=CC[C@H]3N)[C@@H](N)C[C@H]2N)OC[C@]1(C)O (some centres undefined) | 0.141 | 0.92 | 0.86 | 0.322 |
| O=c1n(CCCN2CCN(c3cccc(Cl)c3)CC2)nc2ccccn12 | 0.0592 | 0.89 | 0.81 | 0.545 |
| NCC[C@@H](O)C(=O)N[C@@H]1C[C@H](N)[C@@H](O[C@H]2O[C@H](CN)[C@@H](O)[C@H](O)[C@H]2O)[C@H](O)[C@H]1O[C@H]1O[C@H](CO)[C@@H](O)[C@H](N)C1O (some centres undefined) | 0.0678 | 0.97 | 1 | 0.455 |
| O=C(O)c1cn(C2CC2)c2cc(N3CCNCC3)c(F)cc2c1=O | 0.203 | 0.83 | 0.88 | 1.53 |
| NCCCCC(N)C(=O)NC(Cc1c[nH]c2ccccc12)C(=O)NC(CCCCN)C(=O)O (stereo not drawn) (H-Lys-Trp-Lys-OH; configuration not given here) | 0.061 | 0.96 | 0.96 | 0.974 |
| NCCc1cnc[nH]1 | 0.0425 | 0.92 | 1.03 | 0.661 |
| CN[C@@H]1C(OC2[C@H](O[C@H]3[C@H](O)[C@@H](O)[C@H](N=C(N)N)[C@@H](O)[C@@H]3N=C(N)N)OC(C)[C@]2(O)CO)OC(CO)C(O)C1O (some centres undefined) | 0.157 | 0.94 | 0.85 | 0.991 |
| CN(N=O)C(=O)N[C@@H]1[C@@H](O)[C@H](O)[C@@H](CO)O[C@@H]1O | 0.131 | 0.86 | 0.99 | 0.763 |
| Cc1cc(=O)[nH]c(=S)[nH]1 | 0.169 | 0.91 | 0.9 | 0.513 |
| CC(C)Cn1c(=O)n(C)c(=O)c2[nH]cnc21 | 0.383 | 0.94 | 0.94 | 0.88 |
| Oc1c(Br)cc(Br)c2cccnc12 | -0.0144 | 0.85 | 0.97 | 0.607 |
| C=CCc1ccccc1OCC(O)CNC(C)C (centres undefined) | 0.122 | 0.8 | 0.83 | 0.311 |
| Nc1ccc(C(=O)O)c(O)c1 | 0.122 | 0.9 | 0.88 | 0.958 |
| COc1cc2c(c(OC)c1OC)-c1ccc(OC)c(=O)cc1[C@@H](NC(C)=O)CC2 | 0.158 | 1.37 | 1.36 | 0.937 |
| O=C(O)P(=O)(O)O | 0.178 | 0.97 | 0.91 | 1.89 |

| Structure (SMILES) | signal change (36 h minus 0 h) (PubChem AID 1586) | SMN1 luciferase ratio [1] | SMN2 luciferase ratio [1] | normalised LDH release [2] |
| --- | --- | --- | --- | --- |
| CNCCc1ccccn1 | 0.185 | 0.92 | 0.92 | 1.3 |
| c1ccc2c(CC3=NCCN3)cccc2c1 | 0.21 | 0.86 | 0.91 | 0.46 |
| CN(C)CCCO[C@H]1[C@@H](C(O)CO)OC2OC(C)(C)O[C@@H]21 (some centres undefined) | 0.107 | 0.87 | 0.91 | 0.298 |
| Fc1ccc(C(c2ccc(F)cc2)N2CCN(C/C=C/c3ccccc3)CC2)cc1 | 0.174 | 0.76 | 0.84 | 0.666 |
| CC(Oc1ccccc1)C(=O)N[C@@H]1C(=O)N2[C@@H]1SC(C)(C)[C@@H]2C(=O)O (some centres undefined) | 0.0525 | 0.81 | 0.85 | 0.372 |
| CC(=O)Oc1ccc2c(c1)CCC1C2CC[C@@]2(C)C1CC[C@@H]2OC(C)=O (some centres undefined) | 0.0613 | 0.93 | 0.88 | 0.754 |
| O=C(O)c1ccccc1C(=O)Nc1ccc(S(=O)(=O)Nc2nccs2)cc1 | 0.282 | 0.9 | 0.97 | 0.985 |
| CC12CCC(CC1=O)C2(C)C (centres undefined) | 0.365 | 0.93 | 0.94 | 0.982 |
| NCC1CCC(N)C(OC2C(N)CC(N)C(OC3OC(CO)C(O)C(N)C3O)C2O)O1 (centres undefined) | 0.534 | 0.95 | 0.95 | 0.952 |
| Cc1ccc(O)cc1 | 0.127 | 0.9 | 1.06 | 0.863 |
| CCN(CC)CCOCCOC(=O)C1(c2ccccc2)CCCC1 | 0.126 | 0.61 | 0.62 | 1.05 |
| CC(=O)N[C@@H](Cc1c[nH]c2ccccc12)C(=O)O | 0.186 | 0.98 | 0.89 | 0.748 |
| CCC(=O)c1c(O)cc(O)cc1O | 0.221 | 0.93 | 0.8 | 0.844 |
| Nc1ccc(S(=O)(=O)Nc2ncccn2)cc1 | 0.141 | 0.84 | 0.94 | 0.837 |
| O=C(COc1ccc(Cl)cc1)N1CCN(Cc2ccc3c(c2)OCO3)CC1 | 0.263 | 0.86 | 0.86 | 0.85 |
| CC(=O)O[C@]1(C(C)=O)CCC2C3C[C@H](C)C4=CC(=O)CC[C@]4(C)C3CC[C@@]21C (some centres undefined) | 0.13 | 0.97 | 0.92 | 0.796 |
| CN[C@@H]1[C@H](O)[C@H](NC)[C@H]2O[C@@]3(O)C(=O)C[C@@H](C)O[C@H]3OC2[C@H]1O (some centres undefined) | 0.421 | 0.79 | 0.86 | 1.1 |
| N[C@@H]1CONC1=O | 0.163 | 0.85 | 0.95 | 0.75 |
| Cc1cc(C(C)(C)C)cc(C)c1CC1=NCCN1 | 0.0906 | 0.85 | 0.88 | 0.925 |
| CC(=O)CC(c1ccccc1)c1c(O)c2ccccc2oc1=O (centres undefined) | 0.2 | 0.95 | 0.89 | 0.995 |
| CN1CCC(OC(c2ccccc2)c2ccccc2)CC1 | 0.108 | 0.91 | 0.89 | 1 |
| COc1ccc2c3c1O[C@H]1C[C@@H](O)C=C[C@@]31CCN(C)C2 | 0.135 | 0.94 | 0.91 | 1.13 |
